Laboratory results as given in patent publication US20090304667A1 (POSTECH ACADEMY INDUSTRY, published 2009).
Results are given in words; binding and its absence hold for the method and conditions named. Binding seen in cells or lysates may run through a third protein. Some binding calls cover weakened binding; strength is not graded here.

Sequences of proteins named here, by UniProt entry; tags and fusion partners are left off. Residues count along the entry.
HA-Rheb^wt (Q15382, residues 1-181): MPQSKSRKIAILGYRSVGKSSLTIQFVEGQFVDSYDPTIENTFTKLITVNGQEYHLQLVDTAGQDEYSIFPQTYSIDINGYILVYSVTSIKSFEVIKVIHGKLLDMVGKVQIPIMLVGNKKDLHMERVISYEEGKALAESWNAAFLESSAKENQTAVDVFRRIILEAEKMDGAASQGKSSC

Key:
HA-Rheb^wt (human) = HA-Rheb^wt (human) (UniProt Q15382); test: GST pull-down of HA-Rheb^wt cell lysates with truncated GST-PLD2 fragments
PLD2^wt = target: T1, PLD2^wt (Homo sapiens, UniProt O14939 1-933); test: GST pull-down with PLD2-expressing cell lysates
T1 construct: Ectopically expressed in COS7 or HEK293 cells from a mammalian expression vector; used as cell lysate; also called phospholipase D2

GST-2F3 (amino acids 476-612 of PLD2) (from UniProt O14939 476-612)
binding (HA-Rheb^wt (human)): binds

GST-Rheb (from UniProt Q15382 1-184)
binding (PLD2^wt): binds
